Results published in article doi:10.1101/860916 (bioRxiv, 2019).
No constants are given. Whether binding was seen depends on the method and setting. Some binding calls cover weakened binding; strength is not graded here. Where a sequence is shown, tags or fusion partners need not be part of it.

Biological target: T1, FtsZ of S. coelicolor, C-terminal His-tag fusion (Streptomyces coelicolor) (UniProt P45500)
T1 sequence: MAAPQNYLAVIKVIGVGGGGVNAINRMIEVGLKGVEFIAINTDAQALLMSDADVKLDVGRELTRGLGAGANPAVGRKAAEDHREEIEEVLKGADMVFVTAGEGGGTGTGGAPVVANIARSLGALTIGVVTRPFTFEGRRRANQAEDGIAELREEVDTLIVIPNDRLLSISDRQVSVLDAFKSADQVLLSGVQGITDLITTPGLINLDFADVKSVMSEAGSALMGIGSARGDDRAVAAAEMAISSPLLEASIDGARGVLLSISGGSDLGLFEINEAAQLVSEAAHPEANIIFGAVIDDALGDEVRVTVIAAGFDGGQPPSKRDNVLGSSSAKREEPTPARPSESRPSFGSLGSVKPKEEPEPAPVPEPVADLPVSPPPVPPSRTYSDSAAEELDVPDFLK
Experiment: co-sedimentation

## C-terminally truncated SsgB of S. coelicolor (SsgBΔC, 1-114 aa), His6-tagged (from UniProt Q9L268 1-114) (domain or fragment)
  binding: binds
